Data source: PubChem BioAssay AID1259294 (Sanger Institute, 2017)
This is an unselected part of 160 reagents. In the full data, 43 (27%) were called active. 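Calls mean synergy with any one drug, not lethality of knock-down alone; BYL719 1 µM, cetuximab 5 µg/ml, trametinib 10 nM barely cut viability.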 Unmarked entries are inactive. Reagents against one gene are numbered here. Viability is capped at 1. Not stated in the record: the amount of reagent, the time to read-out.

Purpose: 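Knock-downs that boost anti-cancer drug killing in colorectal cancer cells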 (follow-up of hits)
Cells: human CL40 colorectal cancer cells
Reagents: single siRNA against human genes
Treatment: anchor drug or DMSO vehicle added to knock-down cells: BYL719 1 µM, cetuximab 5 µg/ml, trametinib 10 nM
Read-out: 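Cell viability after knock-down with vehicle or drug, each replicate set against non-targeting pool 2 and then averaged; synergy score weighs the observed combined effect against the expected one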
Scale: synergy score with trametinib and synergy score with BYL719 and synergy score with cetuximab: higher = stronger synergistic (synthetic lethal) killing; viability, knock-down alone: higher = more cells survive knock-down; viability, knock-down plus trametinib: higher = more cells survive combination
Active means: 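a synergy score over 0.10 with BYL719, cetuximab or trametinib marks synergy with a drug; lacking such a score means no synergy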
Calls: active = synergy with a drug; inactive = no synergy

target gene | reagent | synergy score with trametinib | synergy score with BYL719 | synergy score with cetuximab | viability, knock-down alone (fraction of control) | viability, knock-down plus trametinib (fraction of control)
STK36 | 1 | 0.00288 | -0.317 | -0.061 | 0.495 | 0.223
STK36 | 2 | 0.0713 | -0.088 | -0.106 | 1 | 0.384
STK36 | 3 | 0.0319 | -0.271 | -0.0688 | 0.911 | 0.383
STK36 | 4 | -0.0291 | -0.281 | -0.106 | 1 | 0.485
SYNCRIP | 1 | 0.0841 | -0.086 | 0.0218 | 0.646 | 0.21
SYNCRIP | 2 | 0.152 (active) | -0.00932 | -0.106 | 1 | 0.303
SYNCRIP | 3 | 0.104 (active) | 0.0198 | -0.165 | 0.613 | 0.176
SYNCRIP | 4 | -0.0499 | -0.223 | -0.228 | 0.679 | 0.359
MPP3 | 1 | 0.029 | -0.377 | -0.195 | 0.9 | 0.381
MPP3 | 2 | 0.0386 | -0.29 | -0.0439 | 0.74 | 0.299
MPP3 | 3 | 0.25 (active) | 0.195 | -0.271 | 0.815 | 0.121
MPP3 | 4 | -0.0569 | -0.399 | -0.189 | 0.514 | 0.291
SF3B1 | 1 | -0.0447 | -0.0493 | -0.00185 | 0.152 | 0.114
SF3B1 | 2 | -0.0119 | -0.0224 | -0.00716 | 0.212 | 0.108
SF3B1 | 3 | 0.046 | 0.019 | -0.0133 | 0.305 | 0.093
SF3B1 | 4 | -0.0501 | -0.0565 | -0.0301 | 0.124 | 0.107
IRAK3 | 1 | 0.105 (active) | 0.0666 | -0.108 | 0.68 | 0.204
IRAK3 | 2 | 0.0618 | -0.0296 | -0.265 | 0.738 | 0.275
IRAK3 | 3 | -0.127 | -0.193 | -0.258 | 0.648 | 0.422
IRAK3 | 4 | 0.194 (active) | 0.0029 | 0.00462 | 1 | 0.261
PFKFB3 | 1 | -0.0748 | -0.142 | -0.166 | 0.686 | 0.387
PFKFB3 | 2 | 0.12 (active) | -0.058 | 0.0593 | 0.818 | 0.253
PFKFB3 | 3 | -0.085 | -0.405 | -0.146 | 0.813 | 0.455
PFKFB3 | 4 | 0.148 (active) | -0.0717 | 0.0709 | 0.817 | 0.224
BMPR2 | 1 | 0.0262 | -0.2 | -0.106 | 1 | 0.429
BMPR2 | 2 | 0.164 (active) | -0.232 | -0.025 | 0.972 | 0.279
BMPR2 | 3 | 0.0327 | -0.209 | -0.106 | 1 | 0.423
BMPR2 | 4 | -0.213 | -0.322 | -0.106 | 1 | 0.668
RPS6KA4 | 1 | 0.0279 | -0.22 | -0.1 | 0.7 | 0.291
RPS6KA4 | 2 | 0.149 (active) | 0.0513 | -0.112 | 0.85 | 0.238
RPS6KA4 | 3 | -0.0218 | -0.279 | -0.0883 | 0.812 | 0.392
RPS6KA4 | 4 | 0.141 (active) | 0.0447 | -0.167 | 0.66 | 0.159
HSPB8 | 1 | 0.133 (active) | -0.0988 | -0.0578 | 0.902 | 0.278
HSPB8 | 2 | -0.00557 | -0.134 | 0.0368 | 1 | 0.461
HSPB8 | 3 | -0.109 | -0.197 | -0.163 | 0.663 | 0.412
HSPB8 | 4 | 0.162 (active) | -0.00559 | 0.000562 | 0.789 | 0.198
MARK3 | 1 | -0.00825 | -0.449 | -0.225 | 0.819 | 0.381
MARK3 | 2 | 0.141 (active) | 0.0982 | -0.106 | 1 | 0.314
MARK3 | 3 | -0.0898 | -0.436 | -0.177 | 0.839 | 0.472
MARK3 | 4 | 0.178 (active) | -0.0499 | -0.188 | 0.909 | 0.236
MAPK4 | 1 | 0.0447 | -0.177 | -0.0313 | 0.994 | 0.408
MAPK4 | 2 | -0.0338 | -0.133 | -0.123 | 0.786 | 0.392
MAPK4 | 3 | 0.0713 | -0.0465 | 0.03 | 0.719 | 0.256
MAPK4 | 4 | 0.0405 | -0.179 | -0.26 | 0.37 | 0.128
BRAF | 1 | -0.0254 | -0.238 | -0.251 | 0.456 | 0.233
BRAF | 2 | 0.00507 | -0.0404 | -0.0334 | 0.441 | 0.196
BRAF | 3 | 0.00662 | -0.0627 | 0.0476 | 0.753 | 0.336
BRAF | 4 | 0.0257 | -0.155 | -0.147 | 0.954 | 0.409
PIM1 | 1 | 0.0185 | -0.0585 | -0.0145 | 0.584 | 0.247
PIM1 | 2 | -0.0161 (active) | 0.116 | -0.193 | 0.903 | 0.427
PIM1 | 3 | -0.162 | -0.427 | -0.0135 | 0.851 | 0.55
PIM1 | 4 | 0.0254 | -0.217 | -0.141 | 0.962 | 0.413
PRAG1 | 1 | 0.0534 (active) | 0.117 | 0.0452 | 0.706 | 0.268
PRAG1 | 2 | 0.0111 | -0.0821 | 0.0798 | 0.949 | 0.421
PRAG1 | 3 | -0.134 | -0.143 | 0.00991 | 0.933 | 0.559
PRAG1 | 4 | -0.0306 | -0.155 | -0.118 | 0.977 | 0.476
PIK3CA | 1 | 0.178 (active) | -0.023 | -0.0114 | 1 | 0.277
PIK3CA | 2 | 0.0116 | -0.17 | -0.114 | 0.472 | 0.204
PIK3CA | 3 | 0.158 (active) | 0.0209 | -0.19 | 0.906 | 0.255
PIK3CA | 4 | 0.0149 | -0.418 | -0.208 | 0.704 | 0.306
CDK6 | 1 | 0.161 (active) | -0.0846 | -0.0516 | 0.969 | 0.28
CDK6 | 2 | 0.2 (active) | -0.164 | 0.0255 | 0.901 | 0.21
CDK6 | 3 | 0.0189 | -0.171 | -0.106 | 1 | 0.437
CDK6 | 4 | 0.084 | -0.0711 | 0.064 | 1 | 0.371

Copied from above for reference:
target gene | reagent | synergy score with trametinib | synergy score with BYL719 | synergy score with cetuximab | viability, knock-down alone (fraction of control) | viability, knock-down plus trametinib (fraction of control)
MPP3 | 3 | 0.25 (active) | 0.195 | -0.271 | 0.815 | 0.121
MPP3 | 4 | -0.0569 | -0.399 | -0.189 | 0.514 | 0.291
SF3B1 | 1 | -0.0447 | -0.0493 | -0.00185 | 0.152 | 0.114
SF3B1 | 2 | -0.0119 | -0.0224 | -0.00716 | 0.212 | 0.108
